Experimental data as given in publication PMC2670829 (BMC Pharmacology, 2009).

Conditions: in words

## CC(C)c1c(C(=O)Nc2ccccc2)c(-c2ccccc2)c(-c2ccc(F)cc2)n1CC[C@@H](O)C[C@@H](O)CC(=O)O [Atorvastatin]
  Effect on the metabolism of rapamycin (rapamycin levels in combination cohorts): did not significantly affect the metabolism of rapamycin
